# Data taken from PubChem BioAssay AID588499 (NMMLSC, 2011).
# The campaign covered roughly 360,000 compounds. About 610 (0.17%) were called active. The shares of active, inactive and inconclusive entries below differ from those in the screen. No stated cut-off is given here; in the data, active means inhibition above about 30%; inconclusive means no clear call, values can overlap the other calls; inactive means below that.
# Test system: Botulinum neurotoxin type A light chain protease (Clostridium botulinum A str. ATCC 3502)
# Assay: blockers of BoNT/A LC substrate cleavage – biochemical, flow cytometry, MLPCN library, primary screen (AID 588499); further: plate controls were buffer without enzyme for full effect and enzyme alone for no effect
# Conditions: multiplex microsphere protease substrate cleavage, at 10 µM, active compounds read high
row,SMILES,inhibition
1,Cc1ccc(NC(=O)C2CCN(S(C)(=O)=O)CC2)cc1,inconclusive: -9.7%
2,CCn1c(SCC(=O)NCc2ccco2)nnc1-c1c[nH]c2ccccc12,inconclusive: 5%
3,COc1cccc(C#Cc2c(C=O)n(C)c3ccccc23)c1,active: 36.3%
4,Cc1cc(NC(=O)c2cc3cccc([N+](=O)[O-])c3[nH]2)ccc1F,inconclusive: -11.1%
5,CSc1ccc(-c2nc(CSCC(=O)N3CCOCC3)c(C)o2)cc1,inconclusive: -1.8%
6,Cc1cc(C)nc(N2N=C(C(F)(F)F)CC2=O)n1,inconclusive: 12%
7,OCCn1c(SCCOc2ccccc2F)nc2ccccc21,inactive: -0.5%
8,Cc1ccc(-n2c([S-])c(C(=O)Nc3ccc(OC(F)F)cc3)[n+]3ccc(C(=O)NCCO)cc23)cc1C,active: 50.9%
9,CN(C)C(=O)c1cn(-c2ccccc2)nc1-c1cccs1,inconclusive: -1.9%
10,CSC1CCCCC1(O)CSc1nc2ccccc2o1 (stereo not given),inconclusive: -1.6%
11,CCOC(=O)c1c(C)n(C)c2ccc(OCC(O)Cn3c(C)nc4ccccc43)cc12 (stereo not given),inconclusive: 0%
12,Cc1cc(C(N)=O)nn1-c1c(Cl)cc(Cl)cc1Cl,inconclusive: -1.5%
13,Cc1noc(C)c1C(=O)N1CCN(CCc2ccccc2)CC1,inconclusive: -1.9%
14,COc1ccc(C(=O)NC(=S)Nc2ccc(N3CCN(C(C)=O)CC3)cc2)cc1[N+](=O)[O-],inconclusive: 4.2%
15,CCOC(=O)c1cn(CC)c2ccc(S(=O)(=O)N3CC(C)CC(C)C3)cc2c1=O (stereo not given),inactive: -0.9%
16,Nc1c(C(=O)NC2CCCC2)c2nc3ccccc3nc2n1CC1CCCO1 (stereo not given),active: 30.7%
17,COc1cc2c(cc1OC)-c1cc(NC3CCCC3)nc(=O)n1CC2,inconclusive: 1.2%
18,CC(=O)Nc1ccc(S(=O)(=O)N2CCN(CC(O)COc3ccc4ccccc4c3)CC2)cc1 (stereo not given),inconclusive: -1.6%
19,Cc1onc(-c2ccccc2)c1-c1ccnn1C(=O)NC(C)C,inconclusive: 2%
20,CCC(=O)N(Cc1ccco1)c1nc(-c2ccc(OC)cc2)cs1,inactive: 0.2%
21,CC(=O)NC(Cc1cc(C)ccc1C)C(=O)N1CCN(C(=O)Nc2ccc(C(C)=O)cc2)CC1 (stereo not given),inconclusive: -7%
22,CCN1/C(=C/C=C/c2sc3ccccc3[n+]2CC)Sc2ccccc21,active: 31.6%
23,CN(C(=O)COC(=O)C1CCN(S(=O)(=O)c2cccs2)CC1)c1ccccc1,inactive: 0%

row,SMILES,inhibition
1,O=C(c1cc(Cl)c(=O)n(Cc2ccc(Cl)cc2)c1)N1CCOCC1,inconclusive: 0.5%
2,COCCN(C(=O)CN1CCCc2ccccc21)c1c(N)n(Cc2ccccc2)c(=O)[nH]c1=O,inconclusive: 4.1%
3,O=C(COc1ccc(F)cc1)Nc1cc(Cl)ccc1-n1cncn1,inconclusive: -5.1%
4,CC(=O)Nc1ccc(C(=O)/C=C/c2ccc[nH]2)cc1,inconclusive: -37%
5,O=c1c2ccccc2nc2c3ccccc3c(NCc3ccccn3)nn12,inactive: 2.5%
6,CCn1nnnc1-c1ccc(OC)c(S(=O)(=O)NCCc2ccccc2)c1,inconclusive: 0.9%
7,Cn1cc(CNC(=O)C23CC4CC(CC(C4)C2)C3)cn1,inactive: 3%
8,O=C(NC1CC1)C1CCN(c2ccc(S(=O)(=O)N3CCOCC3)cc2Cl)CC1,inactive: 1.4%
9,Cc1ccc(NC(=O)CN2CCN(C(=O)C3CC3)CC2)c(F)c1,inactive: -0.2%
10,COc1ccc(/C=C/c2nnc(NC(=O)C(C)C)s2)cc1,inconclusive: 7%
11,CCOC(=O)c1ccc(S(=O)(=O)N2CCN(CC3CC=CCC3)CC2)cc1 (stereo not given),inconclusive: 7.7%
12,COc1cc(Cl)cc2c1Sc1ccccc1/C2=C/CCN(C)C,inconclusive: -2.3%
13,CCc1nn2c(=O)cc(COC(=O)c3cc(Cl)c(OC)c(OC)c3)nc2s1,inactive: -1.4%
14,CCOc1ccccc1Oc1coc2cc(OC)ccc2c1=O,inactive: -0.3%
15,O=S(=O)(c1ccc(-c2ccon2)s1)N1CCCC1,inconclusive: 12.9%
16,CCc1ccc(OCC(=O)NC(NC(=S)Nc2ccccc2C)C(Cl)(Cl)Cl)cc1 (stereo not given),inactive: 0.3%
17,O=c1c(-c2ccccc2)c(O)c2ccccc2n1-c1ccccc1,inactive: -3.7%
18,Cc1nnc2sc(-c3ccc(-c4ccc(Cl)c(C(F)(F)F)c4)o3)nn12,inactive: 0%
19,Cc1nnc(SCC(=O)c2ccc(S(=O)(=O)N3CCOCC3)cc2)n1-c1ccccc1,inconclusive: -3.1%
20,Cc1ccc(S(C)(=O)=NS(=O)(=O)c2cccc3nsnc23)cc1 (stereo not given),inconclusive: 23.5%
21,COc1ccc(COc2cc(-c3cccc(OC)c3)nc3ccc(NC(=O)C(C)C)cc23)cc1,inactive: 0%
22,CC1(C)Cc2nc(-c3ccccc3)nc(NNC(=O)c3ccco3)c2CO1,inconclusive: 3.9%
23,CC(=O)NC1(C(F)(F)F)C(=O)Nc2c1c(=O)[nH]c(=O)n2Cc1ccco1 (stereo not given),inactive: 0.5%

# Looked up above:
# Under inhibition, `Cc1ccc(NC(=O)CN2CCN(C(=O)C3CC3)CC2)c(F)c1` is entered as inactive: -0.2%
# Under inhibition, `CC(=O)NC1(C(F)(F)F)C(=O)Nc2c1c(=O)[nH]c(=O)n2Cc1ccco1` (stereo not given) is entered as inactive: 0.5%
# Under inhibition, `Cc1ccc(S(C)(=O)=NS(=O)(=O)c2cccc3nsnc23)cc1` (stereo not given) is entered as inconclusive: 23.5%
# Under inhibition, `CCOc1ccccc1Oc1coc2cc(OC)ccc2c1=O` is entered as inactive: -0.3%

# Remaining list, next part

row,SMILES,inhibition
1,Cc1onc(-c2ccc(Cl)cc2Cl)c1C(=O)/C=C/N(C)C,inconclusive: 15.8%
2,CCOC(=O)c1ccsc1NC(=O)c1ccco1,inactive: 0.5%
3,COc1ccc(CNC(=O)[C@H](C)NC(=O)C2CCN(S(=O)(=O)c3ccc(C)cc3)CC2)cc1,inconclusive: 10.6%
4,COc1ccc(OCC(=O)NNC(=O)c2c(-c3ccccc3Cl)noc2C)cc1,inconclusive: -19.8%
5,COc1ccc(C(=O)C(C)[n+]2ccc(C)c3ccccc32)cc1[N+](=O)[O-] (stereo not given),inconclusive: 8.7%
6,Cc1nn(CC(=O)N(C)C)c(C)c1S(=O)(=O)N1CCOCC1,inactive: 1.5%
7,O=C(COC(=O)c1ccccn1)NC1CCCCC1,inactive: 2.4%
8,O=C1CC(=O)Nc2cc(S(=O)(=O)NCc3cccs3)ccc2N1,inactive: -0.1%
9,COc1ccccc1OC(C)C(=O)Nc1nc(-c2ccc(S(=O)(=O)N3CCOCC3)cc2)cs1 (stereo not given),inconclusive: -2.4%
10,COC(=O)COc1ccc(/C=N/NC(=O)c2ccc(N(Cc3ccccc3)S(C)(=O)=O)cc2)cc1,inactive: 0.2%
11,Cc1c(NC(=O)CSc2nnnn2-c2ccc(O)cc2)c(=O)n(-c2ccccc2)n1C,inconclusive: -2.3%
12,Cn1cc([N+](=O)[O-])c(C(=O)Nc2ccn(Cc3c(F)c(F)cc(F)c3F)n2)n1,inconclusive: 2.4%
13,Nc1nc(SCc2ccc(Br)cc2)c2ncn(C3OC(CO)C(O)C3O)c2n1 (stereo not given),inactive: 0.4%
14,S=c1[nH]nc(-c2ccncc2)n1Cc1ccco1,inconclusive: 0.5%
15,COc1ccccc1C(=O)NC(=O)COC(=O)CNC(=O)c1ccccc1,inconclusive: 2.3%
16,NC(=O)CCCc1nc(-c2ccccc2)no1,inconclusive: 13.4%
17,Cc1nn(Cc2ccc([N+](=O)[O-])cc2)c(=O)n1-c1ccc(F)cc1,inconclusive: -2.5%
18,Cc1nc(-c2cc(-c3nc(-c4ccc(C(C)(C)C)cc4)no3)no2)cs1,inconclusive: -6.7%
19,COC(=O)c1c(C)oc(C)c1S(=O)(=O)Nc1ccccc1,inconclusive: -19%
20,COc1ccc(N(CC(=O)Nc2ccc(S(=O)(=O)N3CCCCC3)cc2)S(C)(=O)=O)cc1OC,inconclusive: 2.4%
21,O=C(NN1C(=O)/C(=C/c2cccs2)SC1=S)c1ccncc1,inactive: 0.3%
22,O=C(CCC(=O)OCC(F)(F)C(F)F)Nc1ccc(Cl)cc1,inconclusive: 4.8%
23,O=C(C1CCCN(Cc2ccccc2F)C1)N1CCCC1 (stereo not given),inconclusive: 0%

row,SMILES,inhibition
1,CS(=O)(=O)N1CCN(c2ccccc2NC(=O)Nc2cccc(Cl)c2)CC1,inactive: -0.3%
2,O=C(Nc1cc(C(F)(F)F)cc(C(F)(F)F)c1)c1ccc(Cn2cc(C(F)(F)F)ccc2=O)cc1,inconclusive: 0.3%
3,Cn1nc(C(C)(C)C)c([N+](=O)[O-])c1C(=O)Nc1ccc(Br)cc1,inconclusive: -27.9%
4,CCOc1ccc(Nc2nc(NCc3ccco3)nc(N)c2[N+](=O)[O-])cc1,inconclusive: -14.1%
5,O=C(Nc1c(C(=O)N2CCOCC2)cnn1-c1ccccc1)c1ccco1,inconclusive: -2.5%
6,COc1ccc(C)c(-n2c(N)cc(=O)n(Cc3ccccc3)c2=O)c1,inconclusive: -5.3%
7,Cc1cccn2c(=O)nc(SCC(=O)N3CCCCCC3)nc12,inconclusive: -5%
8,Clc1nc(Oc2ccccc2)nc(-c2cn(-c3ccccc3)c3ccccc23)n1,inconclusive: 9.5%
9,Cc1ccc(N2CCN(C(=S)c3ccc(-c4ccccc4[N+](=O)[O-])o3)CC2)cc1,inconclusive: 21.5%
10,CSCCC(=O)N(C)CC1CCN(CCc2cccc(C(F)(F)F)c2)CC1,inconclusive: -1.3%
11,CC1(C)CC(CCNC(=O)CCl)(c2ccccc2)CCO1 (stereo not given),inactive: 0.2%
12,O=C(Nc1cccc(C(F)(F)F)c1)c1n[nH]c(Cn2cncn2)n1,inconclusive: -13%
13,O=C(Nc1ccc(F)cc1F)c1cc(-c2ccco2)on1,inconclusive: 0.1%
14,CC1CC(=O)NN1C(=O)c1ccccc1 (stereo not given),inconclusive: -27.9%
15,CCc1cccc(C)c1NC(=S)NCc1ccc2[nH]c(C)cc2c1,active: 39.9%
16,OC12CC3C[C@H](C1)C(N1CCOCC1)[C@@H](C3)C2 (stereo not given in full),inconclusive: 2.2%
17,CC(=C/c1ccco1)/C=N/NC(=O)Cc1cccn1C,inactive: -0.2%
18,CCCn1c(C(C)NC(=O)c2ccccc2)n[nH]c1=S (stereo not given),inconclusive: -46.7%
19,O=C(Nc1cccnc1)C1(c2ccc(Cl)cc2)CCCC1,inconclusive: 22.4%
20,Cc1cc(C(=O)NNC(=O)c2cccc(C(F)(F)F)c2)no1,inconclusive: 5.6%
21,N=C1C(c2nc3ccccc3s2)=C(O)CN1NC(=O)c1ccco1,inactive: -0.7%
